Assay results from publication PMC10119292, “Characterization of a fold in TANGO1 evolved from SH3 domains for the export of bulky cargos” (Nature Communications, 2023).
No constants are given. Whether binding was seen depends on the method and setting.

The chains behind the UniProt entries cited, without tags or fusion partners. Where a name states a change or a piece, a line headed by the entry shows the natural chain unless it says otherwise.
UniProt P27986: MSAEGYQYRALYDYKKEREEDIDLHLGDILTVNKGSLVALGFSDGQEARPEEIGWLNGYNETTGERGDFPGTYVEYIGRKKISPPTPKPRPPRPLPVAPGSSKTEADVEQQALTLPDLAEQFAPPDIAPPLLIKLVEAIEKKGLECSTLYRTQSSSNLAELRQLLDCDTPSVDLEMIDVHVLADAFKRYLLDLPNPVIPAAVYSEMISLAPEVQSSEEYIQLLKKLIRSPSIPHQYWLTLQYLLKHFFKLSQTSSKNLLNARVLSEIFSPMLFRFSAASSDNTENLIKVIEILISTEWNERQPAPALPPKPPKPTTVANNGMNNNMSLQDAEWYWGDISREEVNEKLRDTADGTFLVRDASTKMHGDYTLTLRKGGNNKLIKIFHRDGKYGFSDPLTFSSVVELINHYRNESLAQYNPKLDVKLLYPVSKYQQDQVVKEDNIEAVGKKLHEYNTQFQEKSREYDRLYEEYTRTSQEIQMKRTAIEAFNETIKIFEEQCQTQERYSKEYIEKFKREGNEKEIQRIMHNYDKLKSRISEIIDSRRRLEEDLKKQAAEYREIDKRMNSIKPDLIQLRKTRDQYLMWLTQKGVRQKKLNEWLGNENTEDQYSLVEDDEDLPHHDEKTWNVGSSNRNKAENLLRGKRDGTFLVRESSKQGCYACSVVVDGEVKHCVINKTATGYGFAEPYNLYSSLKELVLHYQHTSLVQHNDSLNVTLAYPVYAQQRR

T1: human TALI MOTH domain, residues 23-123 (human) (UniProt Q96PC5)
T1 sequence: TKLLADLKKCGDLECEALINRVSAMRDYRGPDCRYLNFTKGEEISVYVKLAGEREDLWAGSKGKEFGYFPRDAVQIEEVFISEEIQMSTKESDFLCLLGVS

T2: human Otoraplin, residues 18-128 (human, UniProt Q9NRC9 18-128)
T2 construct: Otoraplin, human, UniProt Q9NRC9, residues 18-128; [U-15N]-enriched for the NMR titrations; also called Otoraplin (18-128); not shown: His-tag, N-terminal, cleaved
T2 sequence (looked up): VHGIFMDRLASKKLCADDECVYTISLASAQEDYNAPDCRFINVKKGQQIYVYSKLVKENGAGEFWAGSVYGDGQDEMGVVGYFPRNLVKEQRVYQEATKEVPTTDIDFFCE

T3: human MIA protein, residues 19-131 (human) (UniProt Q16674)
T3 sequence: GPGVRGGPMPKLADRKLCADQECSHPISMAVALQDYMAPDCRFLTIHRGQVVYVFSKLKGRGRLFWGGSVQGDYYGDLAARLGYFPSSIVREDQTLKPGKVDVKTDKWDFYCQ

T4: Drosophila melanogaster TANGO1 cargo-recognition domain, residues 30-139 (Drosophila melanogaster) (UniProt Q9VMA7)
T4 sequence: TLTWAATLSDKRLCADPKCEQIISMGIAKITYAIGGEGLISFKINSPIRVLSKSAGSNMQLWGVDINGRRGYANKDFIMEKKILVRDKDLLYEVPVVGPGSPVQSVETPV


Legend:
[1] = biological target: T1, human TALI MOTH domain, residues 23-123 (human); test: condition: 10-fold molar excess of peptide over 196 µM protein; NMR titration; 1H-15N HSQC of [U-15N]-enriched domain (160-215 µM) without and with 10-fold molar excess of peptide (24-fold for MIA with SOS1 peptide); 298 K; PBS pH 7.4 (hsTANGO1(21-131): 25 mM HEPES pH 7.4, 150 mM NaCl, 1% CHAPS); both purified
[2] = biological target: T2, human Otoraplin, residues 18-128; test: condition: 10-fold molar excess of peptide over 165 µM protein; NMR titration; 1H-15N HSQC of [U-15N]-enriched domain (160-215 µM) without and with 10-fold molar excess of peptide (24-fold for MIA with SOS1 peptide); 298 K; PBS pH 7.4 (hsTANGO1(21-131): 25 mM HEPES pH 7.4, 150 mM NaCl, 1% CHAPS); both purified
[3] = biological target: T3, human MIA protein, residues 19-131 (human); test: condition: 10-fold molar excess of peptide over 182 µM protein; NMR titration; 1H-15N HSQC of [U-15N]-enriched domain (160-215 µM) without and with 10-fold molar excess of peptide (24-fold for MIA with SOS1 peptide); 298 K; PBS pH 7.4 (hsTANGO1(21-131): 25 mM HEPES pH 7.4, 150 mM NaCl, 1% CHAPS); both purified
[4] = biological target: T4, Drosophila melanogaster TANGO1 cargo-recognition domain, residues 30-139 (Drosophila melanogaster); test: NMR titration; 1H-15N HSQC of [U-15N]-enriched domain (160-215 µM) without and with 10-fold molar excess of peptide (24-fold for MIA with SOS1 peptide); 298 K; PBS pH 7.4 (hsTANGO1(21-131): 25 mM HEPES pH 7.4, 150 mM NaCl, 1% CHAPS); both purified
[5] = biological target: T1, human TALI MOTH domain, residues 23-123 (human); test: condition: 10-fold molar excess of peptide over 200 µM protein; NMR titration; 1H-15N HSQC of [U-15N]-enriched domain (160-215 µM) without and with 10-fold molar excess of peptide (24-fold for MIA with SOS1 peptide); 298 K; PBS pH 7.4 (hsTANGO1(21-131): 25 mM HEPES pH 7.4, 150 mM NaCl, 1% CHAPS); both purified
[6] = biological target: T3, human MIA protein, residues 19-131 (human); test: condition: 24-fold molar excess of peptide over 200 µM protein; NMR titration; 1H-15N HSQC of [U-15N]-enriched domain (160-215 µM) without and with 10-fold molar excess of peptide (24-fold for MIA with SOS1 peptide); 298 K; PBS pH 7.4 (hsTANGO1(21-131): 25 mM HEPES pH 7.4, 150 mM NaCl, 1% CHAPS); both purified

binding [1] | binding [2] | binding [3] | binding [4] | binding [5] | binding [6] | Molecule
no binding | no binding | no binding | – | – | – | p85α(91-104), class I PPII helix peptide (from UniProt P27986 91-104)
– | – | – | no binding | no binding | no binding | VPPPVPPRRR (peptide, UniProt Q07889 1149-1158, looked up, SOS1, residues 1149-1158; also called class II ligand; PPII class II ligand; source: synthetic peptide) [SOS1 (1149-1158), class II PPII helix peptide]
